No constants are given. Whether binding was seen depends on the method and setting. For part of these data: Binding seen in cells or lysates may run through a third protein. Some entries that bind do so weakly or less than the wild type. Where a sequence is shown, tags or fusion partners need not be part of it.
What was measured:
[1] = target: T1, Arabidopsis receptor-like kinase BAM1 fused to nYFP (BAM1-nYFP) (Arabidopsis thaliana) (UniProt O49545); experiment: split reporter; BiFC in N. benthamiana leaves agroinfiltrated with the two constructs (1:1 w/w) and PDLP5-CFP as PD marker; confocal images 48 h after agroinfiltration
T1 sequence: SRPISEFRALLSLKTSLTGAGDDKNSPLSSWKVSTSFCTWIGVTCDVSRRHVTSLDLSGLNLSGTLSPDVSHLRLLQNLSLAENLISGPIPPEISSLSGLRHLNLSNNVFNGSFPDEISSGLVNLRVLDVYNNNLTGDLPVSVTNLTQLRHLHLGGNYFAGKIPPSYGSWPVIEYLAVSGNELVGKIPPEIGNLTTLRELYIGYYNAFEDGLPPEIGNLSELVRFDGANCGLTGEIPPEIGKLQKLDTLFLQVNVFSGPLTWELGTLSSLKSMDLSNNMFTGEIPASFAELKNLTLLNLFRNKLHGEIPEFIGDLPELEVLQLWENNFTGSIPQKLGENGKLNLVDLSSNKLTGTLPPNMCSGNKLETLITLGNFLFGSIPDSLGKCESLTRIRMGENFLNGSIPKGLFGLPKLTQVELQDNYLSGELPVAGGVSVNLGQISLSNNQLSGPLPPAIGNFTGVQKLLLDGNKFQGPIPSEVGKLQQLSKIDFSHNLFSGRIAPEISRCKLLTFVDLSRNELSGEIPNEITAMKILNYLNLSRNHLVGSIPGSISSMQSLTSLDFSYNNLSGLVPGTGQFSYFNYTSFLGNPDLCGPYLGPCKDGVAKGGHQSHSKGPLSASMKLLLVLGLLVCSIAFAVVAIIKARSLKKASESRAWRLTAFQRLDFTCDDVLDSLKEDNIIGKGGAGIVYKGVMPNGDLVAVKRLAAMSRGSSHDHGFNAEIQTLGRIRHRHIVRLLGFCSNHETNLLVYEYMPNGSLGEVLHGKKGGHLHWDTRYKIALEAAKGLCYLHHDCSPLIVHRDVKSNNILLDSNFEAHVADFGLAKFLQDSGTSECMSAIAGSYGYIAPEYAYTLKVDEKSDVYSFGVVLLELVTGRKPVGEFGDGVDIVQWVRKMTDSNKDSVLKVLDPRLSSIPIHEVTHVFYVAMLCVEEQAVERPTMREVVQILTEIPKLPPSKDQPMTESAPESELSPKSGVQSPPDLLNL

[2] = target: T2, BAM1-Cub (Arabidopsis thaliana) (UniProt O49545); experiment: two-hybrid; membrane-based split-ubiquitin Y2H, yeast L40; Cub fusions with NubG fusions; growth on SD without leucine, tryptophan and histidine, with 10 mM 3AT and 0.3 mM methionine
T2 sequence: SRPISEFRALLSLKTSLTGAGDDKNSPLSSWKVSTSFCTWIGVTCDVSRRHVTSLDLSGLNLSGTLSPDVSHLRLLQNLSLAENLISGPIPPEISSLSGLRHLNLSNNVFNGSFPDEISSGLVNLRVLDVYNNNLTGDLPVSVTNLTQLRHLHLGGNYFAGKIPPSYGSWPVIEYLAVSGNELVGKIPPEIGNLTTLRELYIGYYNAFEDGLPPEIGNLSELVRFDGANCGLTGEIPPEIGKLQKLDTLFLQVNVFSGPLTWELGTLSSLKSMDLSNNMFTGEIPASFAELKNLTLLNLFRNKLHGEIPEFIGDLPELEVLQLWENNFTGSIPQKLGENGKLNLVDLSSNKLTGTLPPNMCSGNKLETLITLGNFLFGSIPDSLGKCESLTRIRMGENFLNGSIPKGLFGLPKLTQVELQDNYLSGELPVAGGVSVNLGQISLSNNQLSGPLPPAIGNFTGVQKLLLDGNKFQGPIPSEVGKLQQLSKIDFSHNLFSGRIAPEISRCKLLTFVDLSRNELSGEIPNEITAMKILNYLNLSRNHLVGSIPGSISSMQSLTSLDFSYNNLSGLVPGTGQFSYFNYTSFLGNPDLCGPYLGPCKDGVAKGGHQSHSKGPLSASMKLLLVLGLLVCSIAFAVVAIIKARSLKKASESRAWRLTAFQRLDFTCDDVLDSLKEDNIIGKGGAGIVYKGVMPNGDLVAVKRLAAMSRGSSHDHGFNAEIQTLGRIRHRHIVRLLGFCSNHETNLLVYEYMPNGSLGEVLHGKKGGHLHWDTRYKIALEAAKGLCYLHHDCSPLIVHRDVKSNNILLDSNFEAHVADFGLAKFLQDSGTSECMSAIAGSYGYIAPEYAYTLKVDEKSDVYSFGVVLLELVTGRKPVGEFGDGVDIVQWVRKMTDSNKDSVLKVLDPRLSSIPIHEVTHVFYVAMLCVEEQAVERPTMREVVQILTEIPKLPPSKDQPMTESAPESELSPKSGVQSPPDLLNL

[3] = target: T3, Arabidopsis MEA fused to cYFP (cYFP-AtMEA) (Arabidopsis thaliana) (UniProt O65312); experiment: split reporter; BiFC in N. benthamiana leaves agroinfiltrated with the two constructs (1:1 w/w) and PDLP5-CFP as PD marker; confocal images 48 h after agroinfiltration
T3 sequence: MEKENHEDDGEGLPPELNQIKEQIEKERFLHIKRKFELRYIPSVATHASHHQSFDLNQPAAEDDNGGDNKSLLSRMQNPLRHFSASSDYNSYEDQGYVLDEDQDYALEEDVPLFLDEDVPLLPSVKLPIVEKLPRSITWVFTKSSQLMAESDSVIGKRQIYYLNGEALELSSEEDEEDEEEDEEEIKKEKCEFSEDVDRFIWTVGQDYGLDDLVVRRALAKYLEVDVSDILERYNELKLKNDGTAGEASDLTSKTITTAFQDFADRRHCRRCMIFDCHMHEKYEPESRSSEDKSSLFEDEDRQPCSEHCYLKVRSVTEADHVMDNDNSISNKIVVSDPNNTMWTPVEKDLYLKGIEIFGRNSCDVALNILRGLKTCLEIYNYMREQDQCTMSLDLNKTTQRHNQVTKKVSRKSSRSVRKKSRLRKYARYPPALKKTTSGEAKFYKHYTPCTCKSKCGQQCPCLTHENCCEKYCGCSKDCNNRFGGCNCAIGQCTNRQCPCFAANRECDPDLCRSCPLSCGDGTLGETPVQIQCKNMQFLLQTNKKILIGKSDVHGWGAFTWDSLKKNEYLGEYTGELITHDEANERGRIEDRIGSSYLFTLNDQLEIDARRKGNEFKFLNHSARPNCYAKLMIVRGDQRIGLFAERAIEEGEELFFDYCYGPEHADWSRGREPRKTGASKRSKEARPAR

B1: TMV coat protein (CP), BiFC construct (protein, UniProt P69687 1-159)
chain: MSYSITTPSQFVFLSSAWADPIELINLCTNALGNQFQTQQARTVVQRQFSEVWKPSPQVTVRFPDSDFKVYRYNAVLDPLVTALLGAFDTRNRIIEVENQANPTTAETLDATRRVDDATVAIRSAINNLIVELIRGTGSYNRSSFESSSGLVWTSGPAT
[1]
  binding: no binding

B2: TMV CP fused to NubG (protein, UniProt P69687 1-159)
chain: MSYSITTPSQFVFLSSAWADPIELINLCTNALGNQFQTQQARTVVQRQFSEVWKPSPQVTVRFPDSDFKVYRYNAVLDPLVTALLGAFDTRNRIIEVENQANPTTAETLDATRRVDDATVAIRSAINNLIVELIRGTGSYNRSSFESSSGLVWTSGPAT
[2]
  binding: no binding

B3: Arabidopsis FIE fused to nYFP (nYFP-AtFIE) (protein, UniProt Q9LT47 1-369)
chain: MSKITLGNESIVGSLTPSNKKSYKVTNRIQEGKKPLYAVVFNFLDARFFDVFVTAGGNRITLYNCLGDGAISALQSYADEDKEESFYTVSWACGVNGNPYVAAGGVKGIIRVIDVNSETIHKSLVGHGDSVNEIRTQPLKPQLVITASKDESVRLWNVETGICILIFAGAGGHRYEVLSVDFHPSDIYRFASCGMDTTIKIWSMKEFWTYVEKSFTWTDDPSKFPTKFVQFPVFTASIHTNYVDCNRWFGDFILSKSVDNEILLWEPQLKENSPGEGASDVLLRYPVPMCDIWFIKFSCDLHLSSVAIGNQEGKVYVWDLKSCPPVLITKLSHNQSKSVIRQTAMSVDGSTILACCEDGTIWRWDVITK
[3]
  binding: binds

From publication PMC8087827
